No constants are given. Whether binding was seen depends on the method and setting. Some entries that bind do so weakly or less than the wild type.
What was measured:
Assay in all cases: flow cytometry, transfected HEK293FF
[1] = target: membrane LIGHT A190S (human) (UniProt O43557)
[2] = target: membrane LIGHT G188A (human) (UniProt O43557)
[3] = target: membrane LIGHT R189A (human) (UniProt O43557)
[4] = target: membrane LIGHT R195A (human) (UniProt O43557)
[5] = target: membrane LIGHT S192A (human) (UniProt O43557)
[6] = target: membrane LIGHT S193A (human) (UniProt O43557)
[7] = target: membrane LIGHT S194A (human) (UniProt O43557)
[8] = target: membrane LIGHT T191A (human) (UniProt O43557)
[9] = target: membrane LIGHT V196A (human) (UniProt O43557)
[10] = target: membrane LIGHT W197A (human) (UniProt O43557)
[11] = target: membrane LIGHT W198A (human) (UniProt O43557)

Protein sequences, listed by entry. Tags and fused reporters are not part of them. Lines headed by an entry give the natural chain unless they say otherwise; changes in a name come on top. Residues count along the entry.
UniProt O43557: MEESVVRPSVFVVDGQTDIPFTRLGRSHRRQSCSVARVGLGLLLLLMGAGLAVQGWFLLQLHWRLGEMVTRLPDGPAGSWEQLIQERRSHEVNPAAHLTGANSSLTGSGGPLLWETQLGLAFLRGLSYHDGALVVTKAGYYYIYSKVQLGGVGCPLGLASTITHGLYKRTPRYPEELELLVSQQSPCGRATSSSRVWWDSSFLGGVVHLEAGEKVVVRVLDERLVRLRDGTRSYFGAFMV
UniProt P36941, residues 28-227: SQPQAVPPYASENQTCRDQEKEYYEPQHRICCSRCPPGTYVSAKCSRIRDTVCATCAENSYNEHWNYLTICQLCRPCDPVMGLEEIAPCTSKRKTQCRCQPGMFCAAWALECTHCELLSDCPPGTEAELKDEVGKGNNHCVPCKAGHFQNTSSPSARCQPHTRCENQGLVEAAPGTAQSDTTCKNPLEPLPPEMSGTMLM

Measured: binding

LTβR-Fc (from UniProt P36941 28-227) (Fc fusion)
binds: [1] | [2] | [3] | [4] | [5] | [6] | [7] | [8] | [9] | [10] | [11]

Reference: US20230035798A1
